Reference: the supplement of paper PMC11006884
Shown are results outside the selection of targets with a hit, which stands elsewhere. The data scatter; read single values as rough. This is a selection; strong and weak results do not stand in their true shares.

Sequences of proteins named here, by UniProt entry; tags and fusion partners are left off. A change or cut given only in a name is not applied to a line headed by its entry.
UniProt P68104, whole entry, looked up: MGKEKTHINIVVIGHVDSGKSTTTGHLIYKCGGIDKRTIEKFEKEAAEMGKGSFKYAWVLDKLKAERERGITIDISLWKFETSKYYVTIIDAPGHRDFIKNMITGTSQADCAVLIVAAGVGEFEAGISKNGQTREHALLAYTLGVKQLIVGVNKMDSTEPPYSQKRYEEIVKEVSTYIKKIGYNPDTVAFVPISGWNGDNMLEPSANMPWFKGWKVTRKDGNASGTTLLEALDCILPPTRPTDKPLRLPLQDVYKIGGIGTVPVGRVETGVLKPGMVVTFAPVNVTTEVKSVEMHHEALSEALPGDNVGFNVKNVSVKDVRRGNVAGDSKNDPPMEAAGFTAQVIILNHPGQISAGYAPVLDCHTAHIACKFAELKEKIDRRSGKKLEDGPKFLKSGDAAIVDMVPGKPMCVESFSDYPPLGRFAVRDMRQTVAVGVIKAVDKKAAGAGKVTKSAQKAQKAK
UniProt Q00341: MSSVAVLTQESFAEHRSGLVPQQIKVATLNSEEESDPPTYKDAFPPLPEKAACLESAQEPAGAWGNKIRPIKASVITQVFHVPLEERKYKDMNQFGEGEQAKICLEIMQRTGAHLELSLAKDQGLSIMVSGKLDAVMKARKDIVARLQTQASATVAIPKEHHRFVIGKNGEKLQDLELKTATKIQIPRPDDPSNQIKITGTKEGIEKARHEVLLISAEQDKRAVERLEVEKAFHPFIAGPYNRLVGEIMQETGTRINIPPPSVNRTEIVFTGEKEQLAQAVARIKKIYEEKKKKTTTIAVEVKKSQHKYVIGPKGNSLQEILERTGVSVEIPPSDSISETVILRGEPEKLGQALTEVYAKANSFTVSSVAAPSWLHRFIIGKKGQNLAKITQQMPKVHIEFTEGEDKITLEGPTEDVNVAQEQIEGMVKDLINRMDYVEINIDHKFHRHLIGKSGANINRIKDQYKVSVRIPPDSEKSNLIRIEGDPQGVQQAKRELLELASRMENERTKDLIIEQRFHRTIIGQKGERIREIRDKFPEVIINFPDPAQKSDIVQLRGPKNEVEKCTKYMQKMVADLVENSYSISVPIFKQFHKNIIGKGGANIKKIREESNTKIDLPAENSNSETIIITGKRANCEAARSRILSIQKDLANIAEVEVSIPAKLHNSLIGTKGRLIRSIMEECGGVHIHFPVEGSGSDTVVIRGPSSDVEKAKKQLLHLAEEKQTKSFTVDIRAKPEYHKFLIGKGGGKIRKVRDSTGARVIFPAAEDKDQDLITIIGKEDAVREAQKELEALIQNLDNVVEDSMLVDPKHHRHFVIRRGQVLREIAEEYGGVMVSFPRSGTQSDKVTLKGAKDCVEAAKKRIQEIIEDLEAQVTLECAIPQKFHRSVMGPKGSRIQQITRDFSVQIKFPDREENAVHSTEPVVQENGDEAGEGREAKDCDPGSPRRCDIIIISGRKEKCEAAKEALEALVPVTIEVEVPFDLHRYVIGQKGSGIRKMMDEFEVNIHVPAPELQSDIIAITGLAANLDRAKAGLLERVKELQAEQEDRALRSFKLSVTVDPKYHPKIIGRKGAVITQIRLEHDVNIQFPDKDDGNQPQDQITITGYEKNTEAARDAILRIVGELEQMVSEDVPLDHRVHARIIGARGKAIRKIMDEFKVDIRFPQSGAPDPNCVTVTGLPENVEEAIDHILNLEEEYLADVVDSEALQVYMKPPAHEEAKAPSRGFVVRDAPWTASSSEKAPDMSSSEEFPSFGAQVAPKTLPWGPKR
UniProt Q01082, whole entry, looked up: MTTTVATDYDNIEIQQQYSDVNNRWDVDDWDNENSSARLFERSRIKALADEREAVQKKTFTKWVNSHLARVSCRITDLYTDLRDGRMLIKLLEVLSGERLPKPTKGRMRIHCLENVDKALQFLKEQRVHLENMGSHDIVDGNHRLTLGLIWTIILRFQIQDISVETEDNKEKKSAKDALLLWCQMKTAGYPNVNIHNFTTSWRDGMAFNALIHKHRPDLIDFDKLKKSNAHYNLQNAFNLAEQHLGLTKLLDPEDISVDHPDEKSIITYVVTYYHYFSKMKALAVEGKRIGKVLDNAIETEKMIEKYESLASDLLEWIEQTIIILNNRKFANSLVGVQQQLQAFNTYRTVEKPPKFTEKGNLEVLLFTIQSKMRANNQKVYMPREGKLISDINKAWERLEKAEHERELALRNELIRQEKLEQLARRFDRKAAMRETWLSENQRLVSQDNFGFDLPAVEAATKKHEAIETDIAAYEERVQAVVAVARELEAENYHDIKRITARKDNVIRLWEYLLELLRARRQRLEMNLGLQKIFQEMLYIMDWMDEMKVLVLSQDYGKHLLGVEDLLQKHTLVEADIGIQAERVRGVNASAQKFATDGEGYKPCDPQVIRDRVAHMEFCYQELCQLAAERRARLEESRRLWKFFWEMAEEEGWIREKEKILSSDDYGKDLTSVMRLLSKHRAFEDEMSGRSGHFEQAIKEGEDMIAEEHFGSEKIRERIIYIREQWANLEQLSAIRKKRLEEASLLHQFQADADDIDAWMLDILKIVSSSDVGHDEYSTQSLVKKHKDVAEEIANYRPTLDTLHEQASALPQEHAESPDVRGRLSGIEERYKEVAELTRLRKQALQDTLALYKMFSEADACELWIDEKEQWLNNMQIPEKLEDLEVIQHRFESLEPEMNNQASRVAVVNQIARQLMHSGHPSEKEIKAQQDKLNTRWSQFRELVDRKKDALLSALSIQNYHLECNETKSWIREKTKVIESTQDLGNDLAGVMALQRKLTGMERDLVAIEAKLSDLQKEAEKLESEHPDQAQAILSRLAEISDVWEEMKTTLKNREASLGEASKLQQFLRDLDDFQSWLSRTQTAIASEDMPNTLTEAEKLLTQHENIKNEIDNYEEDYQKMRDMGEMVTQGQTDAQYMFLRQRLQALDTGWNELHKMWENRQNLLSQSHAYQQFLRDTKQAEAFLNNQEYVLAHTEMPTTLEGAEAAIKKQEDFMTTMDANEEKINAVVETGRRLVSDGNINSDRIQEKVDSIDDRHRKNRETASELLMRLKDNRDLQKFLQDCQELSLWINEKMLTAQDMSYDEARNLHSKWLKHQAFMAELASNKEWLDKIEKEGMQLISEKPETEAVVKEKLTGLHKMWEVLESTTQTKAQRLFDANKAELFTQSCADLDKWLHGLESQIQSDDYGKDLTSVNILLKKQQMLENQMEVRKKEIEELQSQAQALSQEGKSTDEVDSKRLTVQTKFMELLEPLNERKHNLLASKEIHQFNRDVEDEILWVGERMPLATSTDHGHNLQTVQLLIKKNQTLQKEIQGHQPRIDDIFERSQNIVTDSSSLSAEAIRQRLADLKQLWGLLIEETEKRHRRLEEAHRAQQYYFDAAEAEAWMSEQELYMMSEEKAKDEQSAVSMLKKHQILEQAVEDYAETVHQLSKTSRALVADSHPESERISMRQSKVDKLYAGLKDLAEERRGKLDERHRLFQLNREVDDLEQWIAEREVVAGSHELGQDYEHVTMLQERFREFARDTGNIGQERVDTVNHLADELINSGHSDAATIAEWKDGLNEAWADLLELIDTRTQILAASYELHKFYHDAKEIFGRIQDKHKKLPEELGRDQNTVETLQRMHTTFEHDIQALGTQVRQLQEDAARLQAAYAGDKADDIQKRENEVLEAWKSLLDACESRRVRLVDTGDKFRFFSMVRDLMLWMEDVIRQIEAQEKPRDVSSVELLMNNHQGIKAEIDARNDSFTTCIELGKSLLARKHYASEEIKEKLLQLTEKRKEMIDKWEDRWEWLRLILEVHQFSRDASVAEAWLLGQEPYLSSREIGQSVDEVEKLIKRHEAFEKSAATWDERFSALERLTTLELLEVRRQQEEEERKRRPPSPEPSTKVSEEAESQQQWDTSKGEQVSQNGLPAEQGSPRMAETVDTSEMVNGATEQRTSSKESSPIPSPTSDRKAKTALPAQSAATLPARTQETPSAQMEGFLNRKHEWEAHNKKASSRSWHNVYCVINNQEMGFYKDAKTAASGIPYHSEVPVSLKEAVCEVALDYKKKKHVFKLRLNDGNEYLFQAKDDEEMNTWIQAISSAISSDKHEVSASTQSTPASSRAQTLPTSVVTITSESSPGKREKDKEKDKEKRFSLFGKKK
UniProt P78417: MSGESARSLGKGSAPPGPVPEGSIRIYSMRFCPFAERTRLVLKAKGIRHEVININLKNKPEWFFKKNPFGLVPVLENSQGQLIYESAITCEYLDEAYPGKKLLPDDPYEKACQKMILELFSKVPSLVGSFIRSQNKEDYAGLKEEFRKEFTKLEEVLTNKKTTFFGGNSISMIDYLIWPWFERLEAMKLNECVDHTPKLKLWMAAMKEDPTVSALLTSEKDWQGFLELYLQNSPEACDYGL
UniProt P62330: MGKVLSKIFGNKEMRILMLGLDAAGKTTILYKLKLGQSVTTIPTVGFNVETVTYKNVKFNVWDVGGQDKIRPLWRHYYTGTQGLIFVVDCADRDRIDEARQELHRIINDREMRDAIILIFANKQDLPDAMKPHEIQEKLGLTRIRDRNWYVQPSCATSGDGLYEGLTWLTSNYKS
UniProt P79522: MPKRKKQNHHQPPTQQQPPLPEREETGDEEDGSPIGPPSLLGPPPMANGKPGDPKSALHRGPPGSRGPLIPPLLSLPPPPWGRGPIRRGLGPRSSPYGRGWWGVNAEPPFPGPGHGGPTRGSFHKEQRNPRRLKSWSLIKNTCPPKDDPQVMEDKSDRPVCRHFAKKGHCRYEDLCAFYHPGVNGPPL
UniProt Q01813: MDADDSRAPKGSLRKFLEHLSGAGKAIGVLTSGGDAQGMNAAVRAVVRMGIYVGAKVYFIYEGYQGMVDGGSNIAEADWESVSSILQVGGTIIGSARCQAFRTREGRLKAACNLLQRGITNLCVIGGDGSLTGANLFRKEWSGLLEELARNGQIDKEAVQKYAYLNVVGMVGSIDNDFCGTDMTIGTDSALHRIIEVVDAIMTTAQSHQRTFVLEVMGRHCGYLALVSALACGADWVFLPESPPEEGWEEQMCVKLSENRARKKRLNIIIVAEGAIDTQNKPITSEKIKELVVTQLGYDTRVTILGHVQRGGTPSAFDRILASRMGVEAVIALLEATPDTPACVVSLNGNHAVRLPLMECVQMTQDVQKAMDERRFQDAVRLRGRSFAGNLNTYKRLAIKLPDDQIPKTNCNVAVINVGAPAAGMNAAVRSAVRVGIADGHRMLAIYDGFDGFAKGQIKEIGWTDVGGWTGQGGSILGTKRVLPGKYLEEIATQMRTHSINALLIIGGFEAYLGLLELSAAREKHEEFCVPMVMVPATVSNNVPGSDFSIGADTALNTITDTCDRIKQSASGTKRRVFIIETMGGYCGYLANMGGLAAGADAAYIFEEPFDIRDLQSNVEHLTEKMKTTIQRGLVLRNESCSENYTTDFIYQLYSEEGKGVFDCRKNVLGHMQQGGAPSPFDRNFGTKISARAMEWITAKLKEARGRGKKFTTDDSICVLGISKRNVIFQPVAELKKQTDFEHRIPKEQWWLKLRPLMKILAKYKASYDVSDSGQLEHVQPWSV
UniProt P62995: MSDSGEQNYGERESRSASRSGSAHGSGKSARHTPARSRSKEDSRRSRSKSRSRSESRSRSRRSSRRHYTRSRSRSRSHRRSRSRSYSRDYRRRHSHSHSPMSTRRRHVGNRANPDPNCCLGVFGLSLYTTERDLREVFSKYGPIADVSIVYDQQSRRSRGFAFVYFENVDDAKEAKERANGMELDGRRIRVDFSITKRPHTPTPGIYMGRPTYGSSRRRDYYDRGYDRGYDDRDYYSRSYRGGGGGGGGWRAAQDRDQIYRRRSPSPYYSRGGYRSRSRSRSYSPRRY
UniProt Q00839, whole entry, looked up: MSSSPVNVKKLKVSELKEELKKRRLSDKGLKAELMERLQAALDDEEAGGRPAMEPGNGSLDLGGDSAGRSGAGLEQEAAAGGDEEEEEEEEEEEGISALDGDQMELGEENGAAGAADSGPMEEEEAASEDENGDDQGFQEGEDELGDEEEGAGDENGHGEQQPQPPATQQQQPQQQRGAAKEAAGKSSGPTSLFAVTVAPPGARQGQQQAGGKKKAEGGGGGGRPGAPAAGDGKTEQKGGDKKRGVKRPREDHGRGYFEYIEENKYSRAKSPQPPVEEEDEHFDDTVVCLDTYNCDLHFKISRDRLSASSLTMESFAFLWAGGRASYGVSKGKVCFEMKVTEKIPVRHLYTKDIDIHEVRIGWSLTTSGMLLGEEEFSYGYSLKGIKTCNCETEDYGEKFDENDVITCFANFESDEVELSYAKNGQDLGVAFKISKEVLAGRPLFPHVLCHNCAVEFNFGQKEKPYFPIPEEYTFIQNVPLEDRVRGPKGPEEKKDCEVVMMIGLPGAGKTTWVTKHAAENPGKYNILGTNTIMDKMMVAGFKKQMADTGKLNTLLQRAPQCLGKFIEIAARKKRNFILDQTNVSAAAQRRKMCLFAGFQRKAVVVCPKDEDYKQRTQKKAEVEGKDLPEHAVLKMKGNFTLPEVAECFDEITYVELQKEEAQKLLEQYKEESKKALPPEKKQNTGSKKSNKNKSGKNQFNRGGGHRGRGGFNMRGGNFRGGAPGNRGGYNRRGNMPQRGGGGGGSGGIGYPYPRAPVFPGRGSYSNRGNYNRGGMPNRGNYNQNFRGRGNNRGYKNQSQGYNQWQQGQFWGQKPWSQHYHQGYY

Compound: COC(=O)/C=C/c1ccccc1 [methyl cinnamate]
Assay: log2 ratio of iodoacetamide-alkyne labeling of the cysteine site, DMSO over compound (competition); higher = stronger covalent engagement of the cysteine by the compound, active = 1 or more
Settings: 500 µM; treatment time 1 h; system: HEK293T cell lysate
How it was run: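 Reporter intensities give each cysteine's log2 competition ratio as the mean of control channels over the mean of compound channels. The samples were HEK293T lysate (2 mg/mL) given vehicle or electrophile (500 µM, 1 h, ambient temperature), then iodoacetamide alkyne (1 h), followed by click coupling to sCIP-TMT reagents, pooling, trypsin digestion overnight at 37 °C, streptavidin enrichment, acid elution, Orbitrap Eclipse LC-MS/MS with FAIMS and FragPipe quantification. Duplicate channels and three replicates were run, and cysteines quantified in only one replicate were discarded.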

log2 ratio of iodoacetamide-alkyne labeling, inactive:
UniProt P62854_C77 0.22
RPS21 C56 (UniProt P63220) 0.615
RPL18A C109 (UniProt Q02543) -0.0677
MRPS5 C377 (UniProt P82675) 0.078
EEF1A1 C370 (UniProt P68104) -0.172
TPM4 C154 (UniProt P67936) 0.469
UniProt P62487_C106 0.0394
UniProt Q00341_C948 0.15
RPS21 C17 (UniProt P63220) 0.493
CLTC C1102 (UniProt Q00610) 0.172
UniProt P98164_C4047 0.0445
UniProt P62987_C115 0.207
UniProt P62829_C125 0.269
SPTBN1 C624 (UniProt Q01082) 0.129
GSTO1 C32 (UniProt P78417) 0.209
UniProt P62330_C90 0.0849
UniProt P78527_C4106 0.297
PRR3 C176 (UniProt P79522) 0.352
UniProt P62913_C21 0.124
EIF4G2 C255 (UniProt P78344) 0.133
PFKP C112 (UniProt Q01813) 0.197
SPTBN1 C1284 (UniProt Q01082) 0.122
TPM4 C247 (UniProt P67936) 0.0604
UniProt P62910_C91 0.265
UniProt P78527_C1312 0.142
RPL18A C137 (UniProt Q02543) 0.216
UniProt P62851_C59 0.455
UniProt P62995_C119 0.0195
UniProt P62913_C72 0.0632
PFKP C664 (UniProt Q01813) -0.214
UniProt P83731_C36 0.35
HNRNPU C648 (UniProt Q00839) -0.112
CDK5 C290 (UniProt Q00535) 0.036
SORD C45 (UniProt Q00796) 0.0198
PPIA C161 (UniProt P62937) 0.0201
UniProt P62854_C74 0.22
MRPS11 C186 (UniProt P82912) -0.0493

Pulled one by one from the list above, 2 records:
log2 ratio of iodoacetamide-alkyne labeling, inactive:
SORD C45 (UniProt Q00796) 0.0198
SPTBN1 C1284 (UniProt Q01082) 0.122
